The list shows only some results of the screen, not a fair sample: it gathers tests that were run many times, whatever their T/C, doses with no T/C, and many T/C values between a quarter and a half above the control. Other doses and runs of a compound stand elsewhere. T/C: endpoint of the treated group in % of that of the vehicle group. Some entries give survivors of the animals treated and no T/C: the source holds a T/C of zero for them, seemingly a mark for toxic or unscored doses. Some doses without a T/C left all or most animals alive at the check, yet need not have been tolerated: the source hardly ever lists a survival T/C far under the control, and the zero likely stands for such cases as well. Counts of survivors are from the toxicity check (mostly the fifth day) where no day follows; animals may have died later. Schedule codes are those of the source, read here as Q, the interval in days (D) or hours (H), X, the number of doses. Some doses were run more than once; their values stand side by side, smallest first. Brackets with × count equal records among those shown. For survival time, the PubChem record calls one and a half times the control and up active, and a quarter to a half above the control has no call in these data; cut-offs in other NCI protocols can differ. Some T/C values are followed by the survivors on the day toxicity was checked, most often the fifth; where none is given, no animal had died by that day.
Test system: BDF1 mice, P388 leukemia ip, median survival T/C
Test: NCI In Vivo Anticancer Drug Screen. Data for tumor model P388 Leukemia (intraperitoneal) in B6D2F1 (BDF1) mice
Details: T/C endpoint: median survival time, higher T/C = longer survival
How it was run: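 T/C = treated-group survival ÷ vehicle-control survival; tumour transplanted into mice before dosing.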

[1] = dose: 100.0 mg/kg/injection, schedule: Q01DX009 (ip), vehicle: Klucel (hydroxypropylcellulose) (HPC)
[2] = dose: 240.0 mg/kg/injection, schedule: Q01DX010 (ip), vehicle: saline
[3] = dose: 400.0 mg/kg/injection, schedule: Q01DX001 (ip), vehicle: Klucel (hydroxypropylcellulose) (HPC)

Q: For `CC(CN1CC(=O)NC(=O)C1)N1CC(=O)NC(=O)C1` (stereo not given), which T/C (dose: 100.0 mg/kg/injection, schedule: Q01DX005 (ip), vehicle: Klucel (hydroxypropylcellulose) (HPC), evaluated on day 30) is on record?
A: Its T/C is 86, 111, 139 [5 of 6 alive], 140, 142, 148, 152, 155, 159, 161, 164, 166 (3×), 168, 170, 173, 174, 176, 177, 178, 179, 183, 184, 191, 199, 202, 208 % of control (2×).

Q: And the T/C (dose: 100.0 mg/kg/injection, schedule: Q01DX005 (ip), vehicle: Klucel (hydroxypropylcellulose) (HPC), evaluated on day 35)?
A: The T/C was 177 % of control.

Q: And the survivor count (dose: 100.0 mg/kg/injection, schedule: Q01DX005 (ip), vehicle: Klucel (hydroxypropylcellulose) (HPC))?
A: The survivor count was 3 of 3 (2×) and 6 of 6.

Q: What about the T/C [1] of the same molecule?
A: Its T/C is 86, 89, 92 (2×), 95, 99, 100, 101 (2×), 104 (2×), 111, 114, 116, 122, 125, 126, 137, 169, 171, 175, 191, 191 [2 of 3 alive], 193, 195, 202, 205, 208 (2×), 225, 288 % of control.

Q: And the survivor count [1]?
A: The survivor count was 3 of 3 and 6 of 6 (2×).

Q: And the T/C (dose: 100.0 mg/kg/injection, schedule: Q04DX002 (ip), vehicle: Klucel (hydroxypropylcellulose) (HPC))?
A: The T/C was 128 % of control.

Q: And the T/C (dose: 108.0 mg/kg/injection, schedule: Q04DX003 (ip), vehicle: Klucel (hydroxypropylcellulose) (HPC))?
A: Its T/C is 142 % of control.

Q: What about the T/C (dose: 108.0 mg/kg/injection, schedule: Q04DX003 (ip), vehicle: alkali diluted with saline) of the same molecule?
A: The T/C was 149 % of control.

Q: What about the survivor count (dose: 120.0 mg/kg/injection, schedule: Q01DX010 (ip), vehicle: saline) of the same molecule?
A: Its survivor count is 6 of 6.

Q: And the T/C (dose: 150.0 mg/kg/injection, schedule: Q04DX002 (ip), vehicle: Klucel (hydroxypropylcellulose) (HPC), evaluated on day 30)?
A: Its T/C is 98, 105, 107 (2×), 111, 112 (2×), 114, 119 (2×), 120, 121 (2×), 123 (2×), 125 (4×), 127, 131 (3×), 137, 138, 144, 153, 162 % of control.

Q: And the T/C (dose: 150.0 mg/kg/injection, schedule: Q04DX002 (ip), vehicle: Klucel (hydroxypropylcellulose) (HPC), evaluated on day 35)?
A: The T/C was 139 % of control.

Q: What about the survivor count (dose: 150.0 mg/kg/injection, schedule: Q04DX002 (ip), vehicle: Klucel (hydroxypropylcellulose) (HPC)) of the same molecule?
A: The survivor count was 3 of 3.

Q: And the T/C (dose: 150.0 mg/kg/injection, schedule: Q04DX003 (ip), vehicle: Klucel (hydroxypropylcellulose) (HPC), evaluated on day 30)?
A: Its T/C is 104, 107, 110 (2×), 113 (2×), 120, 121 (2×), 125, 128, 129, 130, 131, 133, 134, 135, 138, 139, 143, 145, 148, 149, 152, 153 (2×), 158, 163, 169, 174 % of control.

Q: And the T/C (dose: 150.0 mg/kg/injection, schedule: Q04DX003 (ip), vehicle: Klucel (hydroxypropylcellulose) (HPC), evaluated on day 35)?
A: The T/C was 171 % of control.

Q: And the survivor count (dose: 150.0 mg/kg/injection, schedule: Q04DX003 (ip), vehicle: Klucel (hydroxypropylcellulose) (HPC))?
A: The survivor count was 1 of 3.

Q: What about the T/C (dose: 180.0 mg/kg/injection, schedule: Q04DX003 (ip), vehicle: Klucel (hydroxypropylcellulose) (HPC)) of the same molecule?
A: Its T/C is 149 % of control.

Q: And the T/C (dose: 200.0 mg/kg/injection, schedule: Q01DX001 (ip), vehicle: Klucel (hydroxypropylcellulose) (HPC))?
A: Its T/C is 106, 108 (2×), 111, 113 (2×), 115 (2×), 118, 122, 123 (4×), 125, 127 (3×), 128, 129, 132 (2×), 133, 137, 139, 142 (3×), 145, 161 % of control.

Q: What about the T/C (dose: 200.0 mg/kg/injection, schedule: Q01DX001 (ip), vehicle: steroid suspending solution) of the same molecule?
A: Its T/C is 129 % of control.

Q: What about the T/C (dose: 200.0 mg/kg/injection, schedule: Q04DX002 (ip), vehicle: Klucel (hydroxypropylcellulose) (HPC)) of the same molecule?
A: Its T/C is 137 % of control.

Q: And the T/C [2]?
A: The T/C was 128 % of control.

Q: And the survivor count [2]?
A: The survivor count was 6 of 6.

Q: And the T/C (dose: 300.0 mg/kg/injection, schedule: Q04DX002 (ip), vehicle: Klucel (hydroxypropylcellulose) (HPC), evaluated on day 30)?
A: Its T/C is 104, 112, 122, 124, 126, 142, 146 (2×), 152 (2×), 156, 158, 160 (2×), 166, 168 (2×), 175, 179, 191 (2×), 194 (2×), 207, 208 (2×), 215, 238 % of control.

Q: And the T/C (dose: 300.0 mg/kg/injection, schedule: Q04DX002 (ip), vehicle: Klucel (hydroxypropylcellulose) (HPC), evaluated on day 35)?
A: Its T/C is 179 % of control.

Q: What about the survivor count (dose: 300.0 mg/kg/injection, schedule: Q04DX002 (ip), vehicle: Klucel (hydroxypropylcellulose) (HPC)) of the same molecule?
A: The survivor count was 3 of 3.

Q: And the T/C (dose: 300.0 mg/kg/injection, schedule: Q04DX003 (ip), vehicle: Klucel (hydroxypropylcellulose) (HPC), evaluated on day 30)?
A: Its T/C is 94, 112, 115, 116, 127, 138, 144, 152 (2×), 166 (3×), 169, 172, 174, 178, 179, 183, 186, 190, 198, 204 (2×), 205, 213, 221, 223 (2×), 225, 230, 239 % of control.

Q: What about the T/C (dose: 300.0 mg/kg/injection, schedule: Q04DX003 (ip), vehicle: Klucel (hydroxypropylcellulose) (HPC), evaluated on day 35) of the same molecule?
A: The T/C was 220 % of control.

Q: And the T/C (dose: 300.0 mg/kg/injection, schedule: Q04DX003 (ip), vehicle: Klucel (hydroxypropylcellulose) (HPC), evaluated on day 60)?
A: The T/C was 91 and 129 % of control.

Q: And the survivor count (dose: 360.0 mg/kg/injection, schedule: Q04DX003 (ip), vehicle: Klucel (hydroxypropylcellulose) (HPC))?
A: Its survivor count is 8 of 8.

Q: And the T/C [3]?
A: Its T/C is 105, 116 (2×), 123, 127, 128, 132, 135, 137 (2×), 140, 141, 143 (2×), 147, 150 (2×), 153, 153 [2 of 3 alive], 154, 155, 161, 163, 173, 174, 177, 180, 186, 189 % of control.

Q: And the survivor count [3]?
A: Its survivor count is 3 of 6.

Q: What about the T/C (dose: 400.0 mg/kg/injection, schedule: Q04DX003 (ip), vehicle: Klucel (hydroxypropylcellulose) (HPC), evaluated on day 38) of the same molecule?
A: The T/C was 171 % of control.

Q: What about the T/C (dose: 400.0 mg/kg/injection, schedule: Q04DX003 (ip), vehicle: Klucel (hydroxypropylcellulose) (HPC), evaluated on day 46) of the same molecule?
A: Its T/C is 88 % of control.

Q: And the T/C (dose: 400.0 mg/kg/injection, schedule: Q04DX003 (ip), vehicle: Klucel (hydroxypropylcellulose) (HPC), evaluated on day 60)?
A: Its T/C is 92 and 235 % of control.

Q: What about the survivor count (dose: 600.0 mg/kg/injection, schedule: Q04DX003 (ip), vehicle: Klucel (hydroxypropylcellulose) (HPC)) of the same molecule?
A: Its survivor count is 7 of 8.

Q: What about the survivor count (dose: 1000.0 mg/kg/injection, schedule: Q04DX003 (ip), vehicle: Klucel (hydroxypropylcellulose) (HPC)) of the same molecule?
A: The survivor count was 3 of 8.

— PubChem BioAssay AID328 (DTP/NCI, 2004)
